# Measurements reported in patent US20070276025A1, “Indirubin-Type Compounds, Compositions, and Methods for Their Use” (priority 2003, published 2007).
# System: GSK-3α/β
# Assay: GSK-3α/β kinase assay (GS-1 peptide, 15 μM ATP)
# Type: biochemical, porcine
# Details: not given
row,Molecule,ΔGexp [kcal/mol]
1,"O=C1Nc2ccc(F)cc2C1=C1Nc2ccccc2C1=O [5-Fluoroindirubin, reference compound]",-7.156

# Same assay, conditions: Table 7; […], GSK-3
row,Molecule,ΔGexp [kcal/mol]
1,6-Chloroindirubin [5d],-6.571
2,"O=C1Nc2ccc([N+](=O)[O-])cc2C1=C1Nc2ccccc2C1=O [5-Nitroindirubin, reference compound]",-7.775
3,"O=C1Nc2cc(I)ccc2/C1=C1/Nc2ccccc2C1=O [5c, 6-Iodoindirubin]",-7.506
4,"O=C1Nc2cc(Cl)c(Cl)cc2/C1=C1/Nc2ccccc2C1=O [5e, 5,6-Dichloroindirubin]",-8.110
5,"Cc1cc2c(cc1Br)NC(=O)C2=C1Nc2ccccc2C1=O [5f, 6-Bromo-5-methylindirubin]",-8.290
6,"O=C1Nc2cc(Br)c([N+](=O)[O-])cc2C1=C1Nc2ccccc2C1=O [5g, 6-Bromo-5-nitroindirubin]",-6.900
7,"O=C1Nc2cc(F)ccc2C1=C1Nc2ccccc2C1=NO [7b, 6-Fluoroindirubin-3′-oxime]",-6.640
8,"O=C1Nc2cc(Cl)ccc2C1=C1Nc2ccccc2C1=NO [7d, 6-Chloroindirubin-3′-oxime]",-8.517
9,"CC(=O)ON=C1C(=C2C(=O)Nc3cc(Br)ccc32)Nc2ccccc21 [8a, 6-Bromoindirubin-3′-acetoxime]",-9.210
10,"CC(=O)O/N=C1/C(=C2/C(=O)Nc3cc(Cl)ccc32)Nc2ccccc21 [8d, 6-Chloroindirubin-3′-acetoxime]",-8.680
11,"CC(=O)ON=C1C(=C2C(=O)Nc3cc(Cl)c(Cl)cc32)Nc2ccccc21 [8e, 5,6Dichloroindirubin-3′-acetoxime]",-10.130
12,"CC(=O)ON=C1C(=C2C(=O)Nc3cc(Br)c(C)cc32)Nc2ccccc21 [8f, 6-Bromo-5-methylindirubin-3′-acetoxime]",-9.570
13,"CC(=O)ON=C1C(=C2C(=O)Nc3cc(Br)c([N+](=O)[O-])cc32)Nc2ccccc21 [8g, 6-Bromo-5-nitroindirubin-3′-acetoxime]",-9.720
14,"CON=C1C(=C2C(=O)Nc3cc(Br)ccc32)Nc2ccccc21 [9a, 6-Bromoindirubin-3′-methoxime]",-8.112
15,"O=C1Nc2ccccc2/C1=C1/Nc2cc(Br)ccc2C1=O [12a, 6′-Bromoindirubin]",-1.514
16,"O=C1Nc2cc(Br)ccc2/C1=C1/Nc2cc(Br)ccc2C1=O [12b, 6,6′-Dibromoindirubin]",-3.101
17,"O=C1Nc2cc(Br)ccc2C1=C1Nc2cc(Br)ccc2C1=NO [13b, 6,6′-dibromo-indirubin-3′-oxime]",-6.725
18,"Cc1ccc2c(c1)/C(=C1/Nc3ccccc3C1=O)C(=O)N2 [compound 15, 5-methyl-indirubin, reference compound]",-7.386
19,"O=C1Nc2ccc(Br)cc2/C1=C1/Nc2ccccc2C1=O [compound 16, 5-bromo-indirubin, reference compound]",-7.505
20,"O=C1Nc2ccc(Cl)cc2/C1=C1/Nc2ccccc2C1=O [compound 17, 5-chloro-indirubin, reference compound]",-7.601
21,"O=C1Nc2ccccc2/C1=C1/Nc2ccc(Br)cc2C1=O [compound 20, 5′-bromo-indirubin, reference compound]",-5.655
22,"O=C1Nc2ccc(Br)cc2/C1=C1/Nc2ccc(Br)cc2C1=O [compound 21, 5,5′-dibromo-indirubin, reference compound]",-5.991
